By UniProt entry, the sequences of proteins in these tests, tags left out. Residues count along the entry.
UniProt O43918, residues 293-354: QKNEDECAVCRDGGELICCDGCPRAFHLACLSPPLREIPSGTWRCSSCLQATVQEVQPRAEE
UniProt P12956: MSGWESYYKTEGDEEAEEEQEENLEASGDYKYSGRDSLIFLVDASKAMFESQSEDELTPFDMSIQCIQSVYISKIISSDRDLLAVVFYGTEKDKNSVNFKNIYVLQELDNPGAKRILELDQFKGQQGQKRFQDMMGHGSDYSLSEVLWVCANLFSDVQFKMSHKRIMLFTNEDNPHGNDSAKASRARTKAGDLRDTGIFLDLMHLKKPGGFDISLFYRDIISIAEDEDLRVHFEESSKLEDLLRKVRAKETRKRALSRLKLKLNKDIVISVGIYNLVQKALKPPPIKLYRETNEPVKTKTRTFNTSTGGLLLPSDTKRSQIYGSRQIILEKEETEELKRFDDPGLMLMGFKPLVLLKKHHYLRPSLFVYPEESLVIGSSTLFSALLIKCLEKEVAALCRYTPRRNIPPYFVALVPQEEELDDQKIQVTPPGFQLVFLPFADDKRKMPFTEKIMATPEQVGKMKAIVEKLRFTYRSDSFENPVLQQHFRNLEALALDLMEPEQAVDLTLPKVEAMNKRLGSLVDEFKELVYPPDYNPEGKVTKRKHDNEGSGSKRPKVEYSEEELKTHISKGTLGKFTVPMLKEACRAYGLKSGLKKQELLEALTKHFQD
UniProt P78527: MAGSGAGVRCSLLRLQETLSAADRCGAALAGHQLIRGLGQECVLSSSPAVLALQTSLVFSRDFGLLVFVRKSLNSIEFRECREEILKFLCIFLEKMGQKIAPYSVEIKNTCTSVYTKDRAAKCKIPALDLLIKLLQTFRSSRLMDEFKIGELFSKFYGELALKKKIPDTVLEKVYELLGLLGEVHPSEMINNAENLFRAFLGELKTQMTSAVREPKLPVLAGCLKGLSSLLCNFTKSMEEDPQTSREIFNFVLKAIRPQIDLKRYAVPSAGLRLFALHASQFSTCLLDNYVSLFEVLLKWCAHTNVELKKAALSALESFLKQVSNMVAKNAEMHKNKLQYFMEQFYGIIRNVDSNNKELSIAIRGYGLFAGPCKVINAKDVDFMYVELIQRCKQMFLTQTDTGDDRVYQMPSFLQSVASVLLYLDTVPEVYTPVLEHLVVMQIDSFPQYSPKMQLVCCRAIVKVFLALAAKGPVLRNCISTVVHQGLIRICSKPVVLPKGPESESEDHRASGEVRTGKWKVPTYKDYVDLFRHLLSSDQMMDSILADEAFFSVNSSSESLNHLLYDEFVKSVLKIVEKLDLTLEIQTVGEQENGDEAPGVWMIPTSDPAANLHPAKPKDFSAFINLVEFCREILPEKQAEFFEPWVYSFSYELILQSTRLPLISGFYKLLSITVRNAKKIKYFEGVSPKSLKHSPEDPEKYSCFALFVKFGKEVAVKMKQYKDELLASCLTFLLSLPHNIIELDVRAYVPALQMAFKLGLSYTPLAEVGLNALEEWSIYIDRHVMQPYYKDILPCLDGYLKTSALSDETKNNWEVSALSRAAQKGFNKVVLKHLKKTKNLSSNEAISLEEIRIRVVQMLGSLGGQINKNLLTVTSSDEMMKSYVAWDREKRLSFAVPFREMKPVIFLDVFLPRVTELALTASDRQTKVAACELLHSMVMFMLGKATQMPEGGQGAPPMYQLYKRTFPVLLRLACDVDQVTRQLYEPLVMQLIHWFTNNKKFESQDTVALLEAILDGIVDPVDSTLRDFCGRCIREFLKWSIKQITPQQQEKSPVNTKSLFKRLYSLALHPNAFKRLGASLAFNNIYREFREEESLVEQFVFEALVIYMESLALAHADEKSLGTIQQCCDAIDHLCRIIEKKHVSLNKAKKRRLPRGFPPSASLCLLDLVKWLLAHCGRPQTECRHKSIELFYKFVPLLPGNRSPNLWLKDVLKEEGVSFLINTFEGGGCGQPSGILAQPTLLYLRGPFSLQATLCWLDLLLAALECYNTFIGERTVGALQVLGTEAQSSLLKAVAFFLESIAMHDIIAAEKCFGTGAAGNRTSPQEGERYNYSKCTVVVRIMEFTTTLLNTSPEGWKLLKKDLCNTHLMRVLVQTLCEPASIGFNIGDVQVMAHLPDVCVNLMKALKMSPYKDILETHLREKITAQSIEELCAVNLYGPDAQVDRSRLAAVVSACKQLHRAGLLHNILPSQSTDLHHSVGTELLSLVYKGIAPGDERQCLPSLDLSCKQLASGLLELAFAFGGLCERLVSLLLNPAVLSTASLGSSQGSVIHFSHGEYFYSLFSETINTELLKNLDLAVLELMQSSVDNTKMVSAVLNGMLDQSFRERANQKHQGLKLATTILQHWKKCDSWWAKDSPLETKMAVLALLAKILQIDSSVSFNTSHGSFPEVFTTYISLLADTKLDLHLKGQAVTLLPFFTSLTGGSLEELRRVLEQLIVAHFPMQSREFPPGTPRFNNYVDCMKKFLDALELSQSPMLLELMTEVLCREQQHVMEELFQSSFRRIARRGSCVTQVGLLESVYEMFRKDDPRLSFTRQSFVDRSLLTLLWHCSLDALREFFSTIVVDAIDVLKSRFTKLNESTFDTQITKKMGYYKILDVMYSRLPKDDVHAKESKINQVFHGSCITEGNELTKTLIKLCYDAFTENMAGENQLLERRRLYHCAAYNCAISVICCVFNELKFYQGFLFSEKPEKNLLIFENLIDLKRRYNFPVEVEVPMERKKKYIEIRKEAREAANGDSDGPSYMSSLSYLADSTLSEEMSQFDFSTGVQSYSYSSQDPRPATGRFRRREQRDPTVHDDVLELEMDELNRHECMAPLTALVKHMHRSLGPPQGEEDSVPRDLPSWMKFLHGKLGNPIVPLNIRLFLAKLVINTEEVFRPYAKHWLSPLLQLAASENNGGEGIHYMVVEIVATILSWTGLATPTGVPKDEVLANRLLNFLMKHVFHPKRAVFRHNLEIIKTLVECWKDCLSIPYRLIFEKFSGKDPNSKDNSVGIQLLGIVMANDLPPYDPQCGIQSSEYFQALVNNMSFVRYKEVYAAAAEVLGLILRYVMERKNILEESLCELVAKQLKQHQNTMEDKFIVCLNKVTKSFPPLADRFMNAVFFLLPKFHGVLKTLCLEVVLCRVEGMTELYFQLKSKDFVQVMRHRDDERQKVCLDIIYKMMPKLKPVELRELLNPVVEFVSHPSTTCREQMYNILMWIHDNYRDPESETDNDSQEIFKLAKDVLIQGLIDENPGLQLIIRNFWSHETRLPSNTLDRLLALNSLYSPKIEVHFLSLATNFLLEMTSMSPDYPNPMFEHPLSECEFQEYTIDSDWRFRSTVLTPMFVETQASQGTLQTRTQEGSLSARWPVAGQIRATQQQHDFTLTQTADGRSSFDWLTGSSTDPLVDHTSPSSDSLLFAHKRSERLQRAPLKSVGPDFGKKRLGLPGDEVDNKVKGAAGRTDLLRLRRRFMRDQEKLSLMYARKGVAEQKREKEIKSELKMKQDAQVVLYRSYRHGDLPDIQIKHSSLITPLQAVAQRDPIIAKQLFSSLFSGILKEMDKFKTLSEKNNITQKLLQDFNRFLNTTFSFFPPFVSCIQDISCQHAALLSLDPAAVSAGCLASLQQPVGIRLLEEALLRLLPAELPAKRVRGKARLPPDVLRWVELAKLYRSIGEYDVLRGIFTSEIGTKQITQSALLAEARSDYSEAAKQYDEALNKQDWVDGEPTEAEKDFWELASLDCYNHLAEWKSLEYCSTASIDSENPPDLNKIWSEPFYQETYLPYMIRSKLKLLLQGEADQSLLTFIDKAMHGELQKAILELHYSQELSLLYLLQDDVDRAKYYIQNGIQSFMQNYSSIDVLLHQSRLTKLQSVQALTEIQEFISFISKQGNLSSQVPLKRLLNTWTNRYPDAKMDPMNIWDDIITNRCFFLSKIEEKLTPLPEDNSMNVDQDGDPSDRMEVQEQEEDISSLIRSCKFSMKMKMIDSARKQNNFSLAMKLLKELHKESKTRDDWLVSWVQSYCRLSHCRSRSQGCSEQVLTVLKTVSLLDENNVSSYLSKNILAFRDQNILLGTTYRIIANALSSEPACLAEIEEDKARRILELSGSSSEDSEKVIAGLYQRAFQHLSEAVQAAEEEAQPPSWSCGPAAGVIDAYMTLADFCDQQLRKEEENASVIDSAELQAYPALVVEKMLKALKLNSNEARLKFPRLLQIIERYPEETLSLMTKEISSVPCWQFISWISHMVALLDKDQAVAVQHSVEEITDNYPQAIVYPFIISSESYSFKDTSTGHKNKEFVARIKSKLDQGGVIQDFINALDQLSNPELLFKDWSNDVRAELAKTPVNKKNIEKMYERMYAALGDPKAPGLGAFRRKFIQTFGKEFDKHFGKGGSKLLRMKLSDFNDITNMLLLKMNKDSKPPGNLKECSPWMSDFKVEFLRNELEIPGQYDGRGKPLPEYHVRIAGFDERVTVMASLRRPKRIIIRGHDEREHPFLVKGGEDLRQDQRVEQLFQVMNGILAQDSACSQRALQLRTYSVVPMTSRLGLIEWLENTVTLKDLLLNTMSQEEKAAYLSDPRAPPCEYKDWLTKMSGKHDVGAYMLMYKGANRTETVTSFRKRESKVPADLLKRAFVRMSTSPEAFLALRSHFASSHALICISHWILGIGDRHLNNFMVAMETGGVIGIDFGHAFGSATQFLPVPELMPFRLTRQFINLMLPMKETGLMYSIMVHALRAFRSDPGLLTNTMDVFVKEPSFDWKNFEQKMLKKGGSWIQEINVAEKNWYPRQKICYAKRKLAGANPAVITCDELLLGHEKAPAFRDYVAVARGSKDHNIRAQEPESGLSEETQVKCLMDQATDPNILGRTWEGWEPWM
UniProt P13010: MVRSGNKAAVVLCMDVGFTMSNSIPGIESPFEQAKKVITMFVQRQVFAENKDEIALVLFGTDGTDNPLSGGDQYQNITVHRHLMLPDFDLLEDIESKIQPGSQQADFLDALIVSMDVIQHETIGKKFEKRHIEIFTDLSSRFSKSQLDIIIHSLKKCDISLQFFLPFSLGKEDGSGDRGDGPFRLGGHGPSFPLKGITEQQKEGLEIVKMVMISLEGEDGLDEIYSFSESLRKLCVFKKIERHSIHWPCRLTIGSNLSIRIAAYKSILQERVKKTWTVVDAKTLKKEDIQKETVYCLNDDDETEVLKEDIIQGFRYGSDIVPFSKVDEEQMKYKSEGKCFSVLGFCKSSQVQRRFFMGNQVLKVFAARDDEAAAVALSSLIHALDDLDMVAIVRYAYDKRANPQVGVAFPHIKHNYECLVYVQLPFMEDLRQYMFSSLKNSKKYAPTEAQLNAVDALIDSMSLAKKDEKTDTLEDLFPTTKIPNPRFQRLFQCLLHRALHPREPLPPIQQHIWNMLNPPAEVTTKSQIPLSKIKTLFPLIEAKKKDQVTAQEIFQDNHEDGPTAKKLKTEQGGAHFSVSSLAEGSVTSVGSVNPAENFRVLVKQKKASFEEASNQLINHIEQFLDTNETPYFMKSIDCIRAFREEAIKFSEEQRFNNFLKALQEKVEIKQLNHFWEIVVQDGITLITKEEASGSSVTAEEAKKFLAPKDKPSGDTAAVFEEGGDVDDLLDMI

According to PMC2225445:

Molecular target: GST-AIRE-PHD1 (human) (UniProt O43918)
Assay: affinity purification with mass spectrometry; 20-25 ug GST-fusion protein on 25 ul glutathione sepharose beads, 50-100 ug THP-1 nuclear extract, buffer B1 (10 mM HEPES pH 8.0, 150 mM NaCl, 0.7 mM MgCl2, 12.5% glycerol, 0.1 mM EDTA, 25 uM ZnCl2, 0.5 mM DTT), overnight 4 C; bands from Coomassie-stained SDS-PAGE identified by MALDI-TOF; only the target purified

Row | binding | Substance
1 | binds | Ku70 (from UniProt P12956 1-609)
2 | binds | DNA-PK catalytic subunit (DNA-PKcs), THP-1 (from UniProt P78527 1-4128) (enzyme)
3 | binds | Ku80 (from UniProt P13010 1-732)

No constants are given. Whether binding was seen depends on the method and setting. In cells and extracts the contact can be indirect. A yes stands for co-enrichment or nearness to the bait. Other partners may have been found.
